Measurements reported in patent publication EP1028725B1, “USE OF VASOPRESSIN ANTAGONISTS FOR TREATING DISTURBANCES OR ILLNESSES OF THE INNER EAR” (Otogene Aktiengesellschaft, priority 1997, dated 2004).
At least one peptide structure holds a part that was inferred or is arguable (an end, a ring closure or a residue).

Columns and labels:
Meerschweinchen = assay: Endolymphatic hydrops (displacement of Reissner's membrane, cochlear histology) after vasopressin administration; assay type: in vivo
[1] = test system: Ribosomen-reiche Zellen (RRC) und Mitochondrien-reiche Zellen (MRC) des endolymphatischen Sacks; assay: FITC-dextran uptake (endocytosis / membrane turnover) in organotypic culture of the endolymphatic sac; assay type: cell-based, Ratte; details: 1 nM Vasopressin
[2] = test system: Ribosomen-reiche Zellen (RRC) des endolymphatischen Sacks; assay: SEM of clathrin-coated pits on the apical cell surface in endolymphatic sac culture; assay type: cell-based, Ratte; details: 1 mM Vasopressin

N=C(N)NCCC[C@H](NC(=O)[C@@H]1CCCN1C(=O)[C@@H]1CSSC[C@H](N)C(=O)N[C@@H](Cc2ccc(O)cc2)C(=O)N[C@@H](Cc2ccccc2)C(=O)N[C@@H](CCC(N)=O)C(=O)N[C@@H](CC(N)=O)C(=O)N1)C(=O)NCC(N)=O [Vasopressin, Arginin-Vasopressin]
leichte bis mäßige Hydrops (Versuchstiere) (Meerschweinchen; acute: single injection 0,2 Einheiten/g intraperitoneal, histology after two hours, n = 20): acht dieser zwanzig | schwere Hydrops (Versuchstiere) (Meerschweinchen; chronic: 0,5 Einheiten/g subkutan einmal pro Tag, 60 Tage, n = 10): vier von zehn | leichte bis mäßige Hydrops (Versuchstiere) (Meerschweinchen; chronic: 0,5 Einheiten/g subkutan einmal pro Tag, 60 Tage, n = 10, further animals besides the severe cases): drei | Membranumsatz in RRC ([1]; n = 84): inhibiert | markierte Endosome in MRC ([1]; n = 84): immer noch beobachtet | Zellen mit FITC-Dextran-Aufnahme ([1]; von 118,5 ± 2,8 Zellen, n = 20, untreated sample 90,5 ± 2,5 von 116,5 ± 2,4 Zellen): 10,5 ± 2,1 Zellen | Clathrin-beschichtete Löcher (pits) auf der apikalen Zelloberfläche der RRC [2]: fast keine Löcher mehr sichtbar
